Data published in PMC12781089.

The chains behind the UniProt entries cited, without tags or fusion partners. Where a name states a change or a piece, a line headed by the entry shows the natural chain unless it says otherwise.
UniProt P11881: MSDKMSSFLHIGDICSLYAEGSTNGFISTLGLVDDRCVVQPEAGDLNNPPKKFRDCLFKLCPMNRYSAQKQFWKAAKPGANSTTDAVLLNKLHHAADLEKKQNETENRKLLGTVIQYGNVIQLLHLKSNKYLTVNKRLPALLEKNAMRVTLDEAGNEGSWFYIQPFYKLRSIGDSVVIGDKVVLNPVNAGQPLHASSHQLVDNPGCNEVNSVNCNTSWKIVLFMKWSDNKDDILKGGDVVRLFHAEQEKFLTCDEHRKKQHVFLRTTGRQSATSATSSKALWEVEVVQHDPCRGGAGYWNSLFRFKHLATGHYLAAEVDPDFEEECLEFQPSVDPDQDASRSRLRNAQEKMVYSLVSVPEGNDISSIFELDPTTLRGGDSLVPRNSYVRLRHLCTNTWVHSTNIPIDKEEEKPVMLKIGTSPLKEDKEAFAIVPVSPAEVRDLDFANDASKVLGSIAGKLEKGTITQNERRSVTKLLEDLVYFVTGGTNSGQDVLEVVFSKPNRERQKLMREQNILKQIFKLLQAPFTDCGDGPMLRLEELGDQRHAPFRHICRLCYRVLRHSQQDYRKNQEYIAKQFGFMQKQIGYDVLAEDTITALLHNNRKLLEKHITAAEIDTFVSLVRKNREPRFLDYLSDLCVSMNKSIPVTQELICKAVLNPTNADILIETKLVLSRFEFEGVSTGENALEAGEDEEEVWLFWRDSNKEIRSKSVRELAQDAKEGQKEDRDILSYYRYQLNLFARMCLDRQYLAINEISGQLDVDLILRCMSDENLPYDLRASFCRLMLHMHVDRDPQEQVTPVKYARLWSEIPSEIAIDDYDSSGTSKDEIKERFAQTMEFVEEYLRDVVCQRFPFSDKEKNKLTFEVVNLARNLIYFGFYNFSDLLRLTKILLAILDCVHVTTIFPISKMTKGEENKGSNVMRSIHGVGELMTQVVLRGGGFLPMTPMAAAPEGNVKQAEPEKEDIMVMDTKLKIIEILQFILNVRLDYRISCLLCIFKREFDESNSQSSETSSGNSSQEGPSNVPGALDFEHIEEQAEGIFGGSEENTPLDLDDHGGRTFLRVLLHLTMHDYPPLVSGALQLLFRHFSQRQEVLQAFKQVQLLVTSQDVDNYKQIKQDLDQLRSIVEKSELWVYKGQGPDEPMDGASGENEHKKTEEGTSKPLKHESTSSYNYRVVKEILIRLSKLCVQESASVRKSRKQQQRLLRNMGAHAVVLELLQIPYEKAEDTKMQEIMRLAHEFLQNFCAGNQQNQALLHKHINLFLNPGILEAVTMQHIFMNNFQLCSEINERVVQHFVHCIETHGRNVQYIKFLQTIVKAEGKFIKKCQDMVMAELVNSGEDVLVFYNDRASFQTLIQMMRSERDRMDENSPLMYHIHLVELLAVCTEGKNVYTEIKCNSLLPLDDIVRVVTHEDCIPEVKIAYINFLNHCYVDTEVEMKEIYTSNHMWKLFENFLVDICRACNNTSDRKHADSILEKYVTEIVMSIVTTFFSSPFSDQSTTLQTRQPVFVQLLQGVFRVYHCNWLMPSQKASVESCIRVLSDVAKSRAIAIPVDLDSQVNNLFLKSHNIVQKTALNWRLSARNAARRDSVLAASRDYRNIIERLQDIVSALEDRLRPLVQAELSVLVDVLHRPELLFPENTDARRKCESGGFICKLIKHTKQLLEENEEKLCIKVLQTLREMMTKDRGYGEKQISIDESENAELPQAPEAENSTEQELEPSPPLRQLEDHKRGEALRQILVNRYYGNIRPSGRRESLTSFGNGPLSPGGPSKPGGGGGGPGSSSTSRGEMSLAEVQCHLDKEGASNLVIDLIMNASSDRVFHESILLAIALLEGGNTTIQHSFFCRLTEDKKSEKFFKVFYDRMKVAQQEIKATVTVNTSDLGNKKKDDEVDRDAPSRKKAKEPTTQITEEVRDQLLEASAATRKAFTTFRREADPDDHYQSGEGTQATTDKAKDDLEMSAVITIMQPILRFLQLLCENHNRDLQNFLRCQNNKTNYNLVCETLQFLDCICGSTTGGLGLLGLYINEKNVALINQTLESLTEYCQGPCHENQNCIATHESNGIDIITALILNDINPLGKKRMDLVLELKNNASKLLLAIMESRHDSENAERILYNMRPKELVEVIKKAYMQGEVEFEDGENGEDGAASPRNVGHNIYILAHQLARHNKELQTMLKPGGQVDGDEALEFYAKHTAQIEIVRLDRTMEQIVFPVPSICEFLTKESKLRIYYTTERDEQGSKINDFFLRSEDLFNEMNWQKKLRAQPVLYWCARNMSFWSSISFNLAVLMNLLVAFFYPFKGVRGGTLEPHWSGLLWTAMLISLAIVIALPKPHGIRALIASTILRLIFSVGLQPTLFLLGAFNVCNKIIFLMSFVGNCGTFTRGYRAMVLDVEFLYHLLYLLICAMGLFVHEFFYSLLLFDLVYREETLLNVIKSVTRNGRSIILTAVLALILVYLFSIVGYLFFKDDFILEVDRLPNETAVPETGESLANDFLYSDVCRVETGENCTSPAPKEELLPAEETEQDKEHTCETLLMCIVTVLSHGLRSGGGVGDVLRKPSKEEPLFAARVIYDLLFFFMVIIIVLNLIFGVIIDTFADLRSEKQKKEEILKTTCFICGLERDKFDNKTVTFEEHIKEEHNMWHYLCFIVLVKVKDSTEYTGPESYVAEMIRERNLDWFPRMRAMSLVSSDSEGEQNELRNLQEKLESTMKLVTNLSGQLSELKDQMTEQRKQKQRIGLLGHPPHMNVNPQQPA
UniProt Q60932: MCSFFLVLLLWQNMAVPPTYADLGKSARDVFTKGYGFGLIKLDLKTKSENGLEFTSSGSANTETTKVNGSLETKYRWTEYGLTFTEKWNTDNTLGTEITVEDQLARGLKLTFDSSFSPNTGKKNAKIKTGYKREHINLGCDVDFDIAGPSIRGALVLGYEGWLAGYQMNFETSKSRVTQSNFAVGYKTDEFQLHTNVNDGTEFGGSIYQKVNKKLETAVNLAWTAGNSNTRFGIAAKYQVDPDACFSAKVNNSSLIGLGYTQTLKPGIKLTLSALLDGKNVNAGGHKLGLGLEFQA

What was measured:
[1] = target: T1, Parkin (mouse brain) (mouse (endogenous in brain)) (UniProt Q9WVS6); assay: co-IP; Parkin antibody on Dynabeads Protein G, total lysates of ventral midbrain of mouse brain
T1 sequence: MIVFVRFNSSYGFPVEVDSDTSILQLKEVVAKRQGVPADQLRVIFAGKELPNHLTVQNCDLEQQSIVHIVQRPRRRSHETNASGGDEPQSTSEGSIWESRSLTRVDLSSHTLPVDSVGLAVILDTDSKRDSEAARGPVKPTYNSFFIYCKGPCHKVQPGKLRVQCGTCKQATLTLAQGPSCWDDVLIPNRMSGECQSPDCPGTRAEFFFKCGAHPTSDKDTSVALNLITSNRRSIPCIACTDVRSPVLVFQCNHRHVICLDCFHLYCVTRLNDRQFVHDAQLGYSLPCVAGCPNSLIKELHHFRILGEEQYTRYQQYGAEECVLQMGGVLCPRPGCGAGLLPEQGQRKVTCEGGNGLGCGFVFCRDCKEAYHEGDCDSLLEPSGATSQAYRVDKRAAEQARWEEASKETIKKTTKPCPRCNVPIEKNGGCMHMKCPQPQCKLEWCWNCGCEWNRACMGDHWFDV

[2] = target: T1, Parkin (mouse brain) (mouse (endogenous in brain)); assay: co-IP; Parkin antibody on Dynabeads Protein G, MAM fractions prepared from the ventral midbrain of mouse brain
[3] = target: T1, Parkin (mouse brain) (mouse (endogenous in brain)); assay: native gel or EMSA; BN-PAGE with immunoblot of crude mitochondria fractions from ventral midbrain of mouse brain
[4] = target: inositol-1,4,5-triphosphate receptor (IP3R), mouse brain (mouse (endogenous in brain)) (UniProt P11881); assay: as above
[5] = target: inositol-1,4,5-triphosphate receptor (IP3R), mouse brain (mouse (endogenous in brain)) (UniProt P11881); assay: co-IP; IP3R antibody on Dynabeads Protein G, brain homogenates (ventral midbrain lysates) of WT and Parkin KO mice
[6] = target: inositol-1,4,5-triphosphate receptor (IP3R), mouse brain (mouse (endogenous in brain)) (UniProt P11881); assay: proximity ligation; Duolink in situ PLA with IP3R and VDAC1 antibodies on 10 um sections of mouse substantia nigra, co-stained for TH; WT and Parkin KO mice

- binding [1]: binds
- binding [2]: binds
- binding [3]: binds
- binding [4]: binds
- binding [5]: binds
- binding [6]: binds
Substance: VDAC1, mouse brain (from UniProt Q60932)

Results are given in words; binding and its absence hold for the method and conditions named. Binding can be weak; no strength is given. For part of these data: In cells and extracts the contact can be indirect.
